Our source for the binding values is article PMC7063196.

Protein sequences, listed by entry. Tags and fused reporters are not part of them. Lines headed by an entry give the natural chain unless they say otherwise; changes in a name come on top.
UniProt O35235: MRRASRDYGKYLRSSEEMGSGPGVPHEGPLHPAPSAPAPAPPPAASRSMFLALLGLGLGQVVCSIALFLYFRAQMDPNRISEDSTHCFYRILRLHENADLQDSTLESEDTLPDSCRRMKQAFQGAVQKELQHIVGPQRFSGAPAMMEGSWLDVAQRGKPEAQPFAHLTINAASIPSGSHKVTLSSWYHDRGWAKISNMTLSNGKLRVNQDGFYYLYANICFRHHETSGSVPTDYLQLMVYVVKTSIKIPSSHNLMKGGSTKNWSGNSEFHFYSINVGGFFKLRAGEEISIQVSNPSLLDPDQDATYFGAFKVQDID

No constants are given. Whether binding was seen depends on the method and setting. Binding seen in cells or lysates may run through a third protein. Binding calls can cover weak binding; strength is not graded here.

The test concerns the target T1, receptor activator of nuclear factor kappa-Β (RANK), endogenous in RAW264.7 cells (mouse (endogenous in RAW264.7)) (UniProt O35305).
T1 sequence: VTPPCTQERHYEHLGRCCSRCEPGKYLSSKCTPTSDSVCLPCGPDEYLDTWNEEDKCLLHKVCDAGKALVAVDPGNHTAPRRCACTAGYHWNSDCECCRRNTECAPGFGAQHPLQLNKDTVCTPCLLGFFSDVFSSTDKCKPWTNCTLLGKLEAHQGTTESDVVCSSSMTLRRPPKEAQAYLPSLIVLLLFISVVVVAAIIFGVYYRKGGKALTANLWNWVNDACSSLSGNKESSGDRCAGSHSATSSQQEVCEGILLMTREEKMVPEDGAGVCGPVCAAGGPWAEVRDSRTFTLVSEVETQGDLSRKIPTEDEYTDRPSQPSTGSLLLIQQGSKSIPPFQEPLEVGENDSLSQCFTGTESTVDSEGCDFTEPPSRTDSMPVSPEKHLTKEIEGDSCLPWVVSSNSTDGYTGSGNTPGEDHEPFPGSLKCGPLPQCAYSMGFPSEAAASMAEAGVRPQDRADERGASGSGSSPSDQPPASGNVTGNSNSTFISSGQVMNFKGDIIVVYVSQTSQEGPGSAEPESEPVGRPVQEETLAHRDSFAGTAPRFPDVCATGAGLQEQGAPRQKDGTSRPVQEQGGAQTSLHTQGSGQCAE
Briefly: pull-down; RANK immunoprecipitated from RAW264.7 lysate, held on protein A/G magnetic beads, washed, coincubated with 1 μg His-tagged RANKL or 1 μg RANKL and 10 μM FHb at room temperature for 60 min; washed with 50 mM Tris pH 7.5, 150 mM NaCl; immunoblot; both purified. A general note: Immunoblotting shows a protein as a band on a membrane.

Turning to “recombinant mouse RANKL with N-terminal 6 × His tag (from UniProt O35235) (ligand)”, the binding result was “binds”.
